# Measured values as given in PubChem BioAssay AID1439 (NMMLSC, 2008).
# Protein sequences, listed by entry. Tags and fused reporters are not part of them.
# UniProt P09471, whole entry, looked up: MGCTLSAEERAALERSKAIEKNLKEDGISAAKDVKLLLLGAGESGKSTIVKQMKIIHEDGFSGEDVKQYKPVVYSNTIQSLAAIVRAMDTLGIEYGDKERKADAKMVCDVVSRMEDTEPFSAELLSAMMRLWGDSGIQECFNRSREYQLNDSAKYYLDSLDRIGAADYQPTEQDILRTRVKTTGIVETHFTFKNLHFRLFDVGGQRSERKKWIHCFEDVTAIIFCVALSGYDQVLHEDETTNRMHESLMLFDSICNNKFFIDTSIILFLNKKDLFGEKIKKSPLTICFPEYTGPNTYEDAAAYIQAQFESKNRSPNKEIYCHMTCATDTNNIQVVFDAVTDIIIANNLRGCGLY
# About 770 (0.35%) of roughly 220,000 compounds were called active. This list was built around the results that the source calls inconclusive (neither active nor inactive); the mix of calls is not that of the screen. Rule as the data show it: active = binding response below about 49% or above about 150%; inconclusive = no clear call, values can overlap the other calls; inactive = in between.
# Target: Guanine nucleotide-binding protein G(o) subunit alpha (Homo sapiens) (UniProt P09471)
# Experiment: RGS7-Galphao binding modulators, primary screen, biochemical, multiplexed bead flow cytometry (AID 1439);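 also: fluorescent Galphao held in activated GDP-AlF4 state binding bead-coupled RGS7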
# Details: at 10 µM, actives lie on both sides
row,Compound,binding response (% of control)
1,C/C(=N\NC(=O)c1cccc([N+](=O)[O-])c1)c1cccs1,inconclusive: 378%
2,O=C(Nc1ccc(S(=O)(=O)N2CCOCC2)cc1)c1cc(-c2ccccc2O)n[nH]1,inconclusive: 90.2%
3,Cc1ccc2cc(/C=N/NC(=O)[C@@H]3CCCN3)c(Cl)nc2c1,inconclusive: 105%
4,CC1(C)OC2C(CO)OC(n3cnc4c(=S)nc[nH]c43)C2O1 (stereo not drawn),inconclusive: 96.2%
5,Cc1ccc(NC(=O)c2cc(C(C)(C)C)nn2Cc2ccccc2)cc1,inconclusive: 90.2%
6,CC(=O)N1C=Cc2c(c(C)c3c([nH]c4ccccc43)c2C)C1,inconclusive: 108%
7,NC(=O)c1cc([N+](=O)[O-])ccc1NCCN1C(=O)c2ccccc2C1=O,inactive: 97.9%
8,Cc1ccc(-c2cc(C(=O)Nc3ccc(S(=O)(=O)Nc4ncccn4)cc3)[nH]n2)c(O)c1C,inconclusive: 103%
9,O=C1C2C3C=CC(C3)C2C(=O)N1c1ccc(S(=O)(=O)Nc2nccs2)cc1 (stereo not drawn),inconclusive: 108%
10,FC(F)(F)c1ccnc(Sc2n[nH]c(C(F)(F)F)n2)c1,inconclusive: 100%
11,CC(=O)NC1(C(F)(F)F)NC(=O)N(CC(C)C)C1=O (stereo not drawn),inactive: 109%
12,CC(C)(C)C(=O)CSc1ncnc2c1cnn2-c1ccccc1,inconclusive: 129%
13,O=c1c(C(c2ccc(F)cc2)c2c(O)nc3n(c2=O)CCS3)c(O)nc2n1CCS2,inconclusive: 78.7%
14,CC1(C)CC(N2CCN(CCO)CC2)=CC(=S)N1,inconclusive: 0.95%
15,COC(=O)CCC(=O)OC1(C)C(=O)C2=CN(C(CO)CO)C(c3ccc(OC)cc3)=CC2=C(Br)C1=O (stereo not drawn),inconclusive: 91.2%
16,Cc1ccc(NNc2c(C)nc3ccccc3nc2=O)cc1,inconclusive: 99.6%
17,O=C(O)Cc1csc(NC(=O)CSc2nnnn2-c2ccc(O)cc2)n1,inconclusive: 94.3%
18,O=C(CCCOc1ccc(Cl)cc1Cl)Nc1ccccc1C(=O)O,inconclusive: 90.8%
19,CN1CCN(C(=S)NC(=O)c2ccc(S(=O)(=O)N3CCOCC3)cc2)CC1,inconclusive: 105%
20,N#C/C(=C\c1ccncc1)c1nc2ccccc2o1,inconclusive: 86.4%

row,Compound,binding response (% of control)
1,CCN(CC)c1ccc(NC(=O)c2ccco2)c(C)c1,inactive: 99.8%
2,CCOC(=O)N1CCC(NCc2c(C(=O)N(C)Cc3ccccc3)nc3ccccn23)CC1,inactive: 86.7%
3,CCS(=O)(=O)Nc1cccc(C2=NN(S(=O)(=O)c3ccccc3)C(c3ccco3)C2)c1 (stereo not drawn),inconclusive: 80.9%
4,COc1ccccc1CN1C[C@@H]2C[C@@H](c3ccccc3OC)N3CCC[C@@]23C1=O,inconclusive: 137%
5,CC(C)(CN1CCN(Cc2ccccc2)CC1)NS(=O)(=O)c1ccc(Cl)cc1,inconclusive: 123%
6,C=CCc1cccc(CNc2c(C)cc(C)cc2C)c1O,inconclusive: 93.5%
7,COCCCNC(=S)NNC(=S)NCCCOC,inconclusive: 92.2%
8,COCCn1c(C)cc(C(=O)CSc2cc(C)c3ccccc3n2)c1C,inactive: 94.4%
9,COc1ccc(C(C)(C)C)cc1NC(=O)c1ccc2c(c1)SC1=NS(=O)(=O)CCN12,inconclusive: 105%
10,CCOC(=O)C1=C(C)N=C2SC=C(C)N2C1c1ccc(OC)cc1 (stereo not drawn),inactive: 99.4%
11,O=C(NCc1ccccc1)N1CCOCC1,inconclusive: 94.7%
12,COC(=O)c1nnn(-c2nc(N3CCOCC3)nc(N3CCOCC3)n2)c1C,inactive: 98.5%
13,Cc1[nH]c2ccc(Br)cc2c(=S)c1C/C=C/Cl,inconclusive: 67.6%
14,O=c1[nH]nc(SCc2ccccc2Cl)n1-c1ccc2c(c1)OCCO2,inconclusive: 120%
15,C/C(=N\NC(=S)NCC(C)(C)C)c1cc(F)cc(F)c1O,inconclusive: 114%
16,CC(=O)Nc1ccc2c(c1)C(=O)N(c1cccc(C)c1)C2=O,inconclusive: 96.7%
17,CCOC(=O)c1c(C)[nH]c(C(=O)N/N=C\c2ccccc2Cl)c1C,inactive: 98.6%
18,CNC(=S)Nc1ccc([N+](=O)[O-])cc1C,inconclusive: 107%
19,O=C(NCc1ccco1)c1ccc(-c2cccc(Cl)c2)o1,inactive: 95.1%
20,CN(Cc1cccs1)C(=O)CCc1c[nH]c2ccccc12,inconclusive: 87.6%

row,Compound,binding response (% of control)
1,CC(C)N(CCn1cnc2c([nH]c3ccccc32)c1=O)C(C)C,inconclusive: 133%
2,CCOC(=O)c1nnn2c1nc(SCC(C)=O)c1ccccc12,inconclusive: 69%
3,S=c1c2c(nc3nc[nH]n13)CCC2,inconclusive: -72.3%
4,CC(=O)c1c(C)[nH]c(C(=O)NC(C)c2ccccc2)c1C (stereo not drawn),inconclusive: 101%
5,CC(C)C[C@H](NC(=O)c1nc[nH]c1C(=O)N[C@@H](CCCCNC(=O)OC(C)(C)C)C(=O)OC(C)(C)C)C(=O)OC(C)(C)C,inconclusive: 103%
6,COC(=O)c1ccccc1COn1c(=O)c[n+]([O-])c2ccccc21,active: 158% [activator]
7,CCC1CCC(C(=O)NC(CCSC)C(=O)NCCN(CC(C)C)CC(C)C)CC1 (stereo not drawn),inactive: 109%
8,COC(=O)c1cccc(NC(=O)c2ccccc2)c1,inconclusive: -49.9%
9,O=C(O)c1ccc(N2C(=O)CCCC2=O)cc1,inconclusive: 129%
10,COc1cc([N+](=O)[O-])ccc1NC(=O)/C=C\C(=O)O,inconclusive: 103%
11,CC1(NC(=S)Nc2ccccc2)CCS(=O)(=O)C1 (stereo not drawn),inconclusive: 114%
12,CC(=O)c1ccc(S(=O)(=O)N2CCN(C(=O)/C=C/c3ccc4ccccc4n3)CC2)cc1,inconclusive: 428%
13,O=c1c2cc(NC(=S)N3CCCCC3)ccc2nc2n1CCCCC2,inconclusive: 102%
14,CCc1ccc2c(c1)C(O)(CC(=O)c1cccs1)C(=O)N2 (stereo not drawn),inactive: 103%
15,COc1ccc([N+](=O)[O-])cc1NC(=O)c1ccc(Br)s1,inconclusive: 78.5%
16,C/C(CC(=O)Nc1cc(Cl)ccc1C)=N\NC(N)=O,inconclusive: 95.6%
17,Cc1cc(N2CCC(C)CC2)nc(NCc2ccccc2)n1,inactive: 101%
18,CCCCN(CC)CCCNC(=S)Nc1ccc2nc(N3CCN(CC)CC3)cc(C)c2c1,inconclusive: 105%

# At a glance, eleven of the compounds above:
row,Compound,binding response (% of control)
5,CC(C)C[C@H](NC(=O)c1nc[nH]c1C(=O)N[C@@H](CCCCNC(=O)OC(C)(C)C)C(=O)OC(C)(C)C)C(=O)OC(C)(C)C,inconclusive: 103%
6,COC(=O)c1ccccc1COn1c(=O)c[n+]([O-])c2ccccc21,active: 158% [activator]
7,CCC1CCC(C(=O)NC(CCSC)C(=O)NCCN(CC(C)C)CC(C)C)CC1 (stereo not drawn),inactive: 109%
8,COC(=O)c1cccc(NC(=O)c2ccccc2)c1,inconclusive: -49.9%
9,O=C(O)c1ccc(N2C(=O)CCCC2=O)cc1,inconclusive: 129%
10,COc1cc([N+](=O)[O-])ccc1NC(=O)/C=C\C(=O)O,inconclusive: 103%
11,CC1(NC(=S)Nc2ccccc2)CCS(=O)(=O)C1 (stereo not drawn),inconclusive: 114%
12,CC(=O)c1ccc(S(=O)(=O)N2CCN(C(=O)/C=C/c3ccc4ccccc4n3)CC2)cc1,inconclusive: 428%
13,O=c1c2cc(NC(=S)N3CCCCC3)ccc2nc2n1CCCCC2,inconclusive: 102%
14,CCc1ccc2c(c1)C(O)(CC(=O)c1cccs1)C(=O)N2 (stereo not drawn),inactive: 103%
15,COc1ccc([N+](=O)[O-])cc1NC(=O)c1ccc(Br)s1,inconclusive: 78.5%
